The other results are listed elsewhere or left out.
Target: T1, OsSMF1 (Oryza sativa, UniProt Q6ZLB0 1-436)
T1 sequence: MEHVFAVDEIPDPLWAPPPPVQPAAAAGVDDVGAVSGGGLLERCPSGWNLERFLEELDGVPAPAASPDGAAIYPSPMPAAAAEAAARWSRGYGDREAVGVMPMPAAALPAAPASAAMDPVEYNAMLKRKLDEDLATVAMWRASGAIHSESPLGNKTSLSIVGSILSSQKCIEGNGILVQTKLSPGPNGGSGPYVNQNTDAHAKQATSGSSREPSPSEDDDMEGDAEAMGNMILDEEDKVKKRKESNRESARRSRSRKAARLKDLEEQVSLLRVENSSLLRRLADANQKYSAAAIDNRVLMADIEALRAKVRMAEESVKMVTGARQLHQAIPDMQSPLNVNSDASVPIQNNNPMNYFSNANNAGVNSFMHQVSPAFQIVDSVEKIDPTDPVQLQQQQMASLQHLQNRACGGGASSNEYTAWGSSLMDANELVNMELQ
Experiment: protein-binding microarray (RPBM); PBS, 2% BSA, 51.3 ng/ul salmon testes DNA, 50 uM zinc acetate, 200 nM TF, 25 C, 1 h; high values mean tight binding
Conditions: protein: recombinant; tags: N-terminal polyhistidine and DsRed monomer fusion (pET32a); chain copies: 2; label: CyDye5-dUTP incorporated in the synthesized complementary strand; 3' TTTTT single-stranded linker to array surface; dsDNA, one strand shown
How it was run: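 The binding signal is fluorescence intensity per array feature (arbitrary units). Readings came from an Axon 4000B scanner after a washed, 2% BSA-blocked, double-stranded custom Agilent array had been incubated for 1 h at 25 °C with 200 nM protein and 50 µM zinc acetate. The protein was a Ni–NTA-purified transcription factor fused N-terminally to polyhistidine and DsRed, expressed in E. coli BL21-CodonPlus.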

Sequence	binding signal
AATACTGAATACTAGTGCAACGTCATTGAAAATTTTATCCCGGAGTCACCTAGTGCAG	5090 fluorescence intensity (a.u.)
TCCGTGATAATATATACACACACTACACGTAGGGTGCGTTCGGAGTCACCTAGTGCAG	4600 fluorescence intensity (a.u.)
TGTTTTCAGAGTTGGCATTTTGCTGTTGAGTTGCATTCCTCGGAGTCACCTAGTGCAG	3730 fluorescence intensity (a.u.)
GCTACAGCACGGACCACAAGATGCATGTGTGTATCATACGCGGAGTCACCTAGTGCAG	3840 fluorescence intensity (a.u.)
AACGGGATATATGATGAAACCACGTCGGCCAGTTTGATCGCGGAGTCACCTAGTGCAG	8340 fluorescence intensity (a.u.)
GACCCCGGTTTTGTCCCACGTGGCGGCTGACTCAGCGTGGCGGAGTCACCTAGTGCAG	22500 fluorescence intensity (a.u.)
ACCTTAATGGACACATCATGCCCAACTAAATCCATATTTGCGGAGTCACCTAGTGCAG	4460 fluorescence intensity (a.u.)
TGATTAACGTAGGACAGTGACATGTACACCAACTAGTCGTCGGAGTCACCTAGTGCAG	4560 fluorescence intensity (a.u.)
CGAATCATCCTTTCACGCTTAGCTGGATTATGTGACAGCCCGGAGTCACCTAGTGCAG	3630 fluorescence intensity (a.u.)
CCGCGCTCACCTGCCGGGCGTGGCGCGCCGCGGTGGCCTCCGGAGTCACCTAGTGCAG	3140 fluorescence intensity (a.u.)
CGCGCGAGCAACCACCACCTCCACATCGCTTCACGTAGACCGGAGTCACCTAGTGCAG	3770 fluorescence intensity (a.u.)
GCGCGTGCGAGTCCGCCACGTCCCCTCGAATGTTCGATATCGGAGTCACCTAGTGCAG	6290 fluorescence intensity (a.u.)
ATACTACGATGTTGATTTCGCTGACATTGTGCATCGACGTCGGAGTCACCTAGTGCAG	13400 fluorescence intensity (a.u.)
TCTGAGTTACTTCCAAGTTGACTAGTTACCTCTTACTACCCGGAGTCACCTAGTGCAG	3260 fluorescence intensity (a.u.)
GGACTTTCTACCGTCATTATCATTGTCATTGACTAGCATGCGGAGTCACCTAGTGCAG	4080 fluorescence intensity (a.u.)
GGTTTTATCTGACGTGGCGGCTGAGTCAGCGTGGGCCCCACGGAGTCACCTAGTGCAG	26700 fluorescence intensity (a.u.)
GAGGTTCCTGGGATTAAATAACAAACGGGCCGCGTCACATCGGAGTCACCTAGTGCAG	5760 fluorescence intensity (a.u.)
TAGTAGTATTGTACAATGTTTATTTGATAGAGTATATACGCGGAGTCACCTAGTGCAG	3490 fluorescence intensity (a.u.)
ATACAGTAAATATTTGCTAATGACGGATTAATTAGGCTTACGGAGTCACCTAGTGCAG	3790 fluorescence intensity (a.u.)
GGCTAGCTAGCTAGCTTGCCATATCGACTCGTCCGTTCCTCGGAGTCACCTAGTGCAG	3360 fluorescence intensity (a.u.)
GGCAGTGGAAAGTGGCAGTTCTGACCACATTCCCTACACCCGGAGTCACCTAGTGCAG	3640 fluorescence intensity (a.u.)
ACCCGCGCCGGCCGGCAGGGCGTCGCCGTCGACGTCGTCGCGGAGTCACCTAGTGCAG	3980 fluorescence intensity (a.u.)
CGGAGAGACTAAATAATAAATGAGATGCCTATCACGACCGCGGAGTCACCTAGTGCAG	3450 fluorescence intensity (a.u.)
TCGCTCGCTCGCCTGCCAAATCTGCATTGGTGCTAGGAGGCGGAGTCACCTAGTGCAG	3730 fluorescence intensity (a.u.)
CCGGCCGTTGGGAGCCACGTCAGCCGGCGGCCTCCGCCTTCGGAGTCACCTAGTGCAG	13100 fluorescence intensity (a.u.)
GTATACTGACTTGATGAGCTCTGACTGCTCATGCCATAATCGGAGTCACCTAGTGCAG	3350 fluorescence intensity (a.u.)
TTAACCAAACCACGACGAAAGCAGGTTAGGTCGCGGCAGGCGGAGTCACCTAGTGCAG	3380 fluorescence intensity (a.u.)

Sequence	binding signal
GGGTCCGGGTGTGTGGGGTGGGGAAGCGAGGCGAAACCCGCGGAGTCACCTAGTGCAG	3940 fluorescence intensity (a.u.)
TCTGTGCCACTCGATCTGTCATCGCCGAGCGCATCCACAGCGGAGTCACCTAGTGCAG	4400 fluorescence intensity (a.u.)
AGGATCCGGTTCAATGTTCAGGAGATGTTGTCATTTTCGGCGGAGTCACCTAGTGCAG	4420 fluorescence intensity (a.u.)
TCGAGCAGCACTATGCCGCCACGCCAAGAGAACTTCAGCTCGGAGTCACCTAGTGCAG	3400 fluorescence intensity (a.u.)
CAACTATGAGGAAACCCTTGTTGAAAGATGGCAAGATAGCCGGAGTCACCTAGTGCAG	26800 fluorescence intensity (a.u.)
TGGTGCTGTGGTGGTGGTGGTCATGGACTCATTGGGCATGCGGAGTCACCTAGTGCAG	3180 fluorescence intensity (a.u.)
TAAACTCTTTCTGTGAGTCAGCACAATAGCCCATCGTGCCCGGAGTCACCTAGTGCAG	18700 fluorescence intensity (a.u.)
CCCACCAGCCGCCTCGCCGGCCGCCGCCGCGGGCGCCTCCCGGAGTCACCTAGTGCAG	6350 fluorescence intensity (a.u.)
GTTCCAGAGCACACAAGTGACTAGGACAGTGGCGAAGCGCCGGAGTCACCTAGTGCAG	3720 fluorescence intensity (a.u.)
CAACCACAACACCGTCTTCTTCGACGTCAACATGCGCGCCCGGAGTCACCTAGTGCAG	4530 fluorescence intensity (a.u.)
ACTTTTCTTAGTTTCCACGTCGCAGTTTCTCTTCTCTCCTCGGAGTCACCTAGTGCAG	6280 fluorescence intensity (a.u.)
CTCTCTATCATTCTCCGTTGCCACGCTAATCGCTCAGCGCCGGAGTCACCTAGTGCAG	3870 fluorescence intensity (a.u.)
AAACGCTATAAAAGGCGGCGGTGCCTTTCTCCTTCATCCGCGGAGTCACCTAGTGCAG	3170 fluorescence intensity (a.u.)
AGACTCCTCAATAGGTCCTGGATCAGCACGTGACTCGCAACGGAGTCACCTAGTGCAG	4030 fluorescence intensity (a.u.)
GGCGGAGGCGGTGGATCGGGCGCGCCAGGCCATGTCGCAGCGGAGTCACCTAGTGCAG	26800 fluorescence intensity (a.u.)
ATGTTTTCTAGACTAATATACTATTAATCTATCTTTTATCCGGAGTCACCTAGTGCAG	36400 fluorescence intensity (a.u.)
TCCCGAGGGCAAAGTCTCCGATTCATTCAGGTCCGACTCGCGGAGTCACCTAGTGCAG	3210 fluorescence intensity (a.u.)
GATGATGCGTGTGTTGTATTCCATCATCATCAGGTAGCGCCGGAGTCACCTAGTGCAG	3400 fluorescence intensity (a.u.)
AACCTGATCCGTCCACGGTGTAAAAGCGCGAGCAGCGGTGCGGAGTCACCTAGTGCAG	3680 fluorescence intensity (a.u.)
AGAAAGCGTACGCCTTGACAAGTCCCTATCGTCACGCCACCGGAGTCACCTAGTGCAG	4080 fluorescence intensity (a.u.)
ATAGAGTGTGGGCCACGCCTGCGAAACCTAATGAGGAACTCGGAGTCACCTAGTGCAG	36800 fluorescence intensity (a.u.)
CATGACTTGGATAAATTAGCGTCATCTTTGTCCCCAATGCCGGAGTCACCTAGTGCAG	5280 fluorescence intensity (a.u.)
ATCTCGATCTGGACGGTACAGAAACGTGTCACGCCTCTCCCGGAGTCACCTAGTGCAG	4710 fluorescence intensity (a.u.)
ACAACATGCATCTACTATGACACACACAACTTCAGATCAACGGAGTCACCTAGTGCAG	4630 fluorescence intensity (a.u.)
TTTCCGAGACTGTTATTGTGCAACACGTCAAGGATACCATCGGAGTCACCTAGTGCAG	4760 fluorescence intensity (a.u.)
AACTATAGCCTAGATTCATAGTATATTAGCTGACATGATACGGAGTCACCTAGTGCAG	3190 fluorescence intensity (a.u.)
AGATCGAGATGCCACATCACCATCCGATGTGGAGGCGCTGCGGAGTCACCTAGTGCAG	18800 fluorescence intensity (a.u.)

Part of the list above in a different format.
Sequence,binding signal
ACTTTTCTTAGTTTCCACGTCGCAGTTTCTCTTCTCTCCTCGGAGTCACCTAGTGCAG,6280 fluorescence intensity (a.u.)
CTCTCTATCATTCTCCGTTGCCACGCTAATCGCTCAGCGCCGGAGTCACCTAGTGCAG,3870 fluorescence intensity (a.u.)
AAACGCTATAAAAGGCGGCGGTGCCTTTCTCCTTCATCCGCGGAGTCACCTAGTGCAG,3170 fluorescence intensity (a.u.)
AGACTCCTCAATAGGTCCTGGATCAGCACGTGACTCGCAACGGAGTCACCTAGTGCAG,4030 fluorescence intensity (a.u.)
